Assay results reported in US6730666B1, “Pharmaceutical compositions comprising porphyrins and some novel porphyrin derivatives” (Yeda Research and Development Co. Ltd., priority 1998, dated 2004).
Some of these results come from one statement about several compounds together. For some of these results: For at least one compound, name, drawing or mass did not settle the structure.

What was measured:
[1] = test system: Lewis lung carcinoma (LLC) lung metastasis; assay: Lewis lung carcinoma lung metastasis model; type: in vivo, C57 black mice; conditions: 25 μg/g of body mass IP
Protocol: (vii) Lewis lung carcinoma tumor assay. Murine Lewis lung carcinoma (LLC) D122 cells (1×10^6 cells/[…] PBS) were injected into the foot pads of 10-week old C57 black mice (O'Reilly et al, 1994). Twenty five μg/g of body mass of porphyrin or corrole compound dissolved in PBS were injected IP twice a week to the treated group, and tumor size was measured periodically in order to follow primary tumor formation. In order to evaluate inhibition of lung metastasis by porphyrin or corrole compound, the primary tumors were allowed to develop over a period of six weeks to a volume of approximately 8 mm^3; after which the tumors were removed and metastases were allowed to develop for four weeks. During this time the treated group received 25 μg/g of body mass of porphyrin or corrole compound IP twice a week. Subsequently the mice were sacrificed, dissected and the lungs removed and photographed. The extent of lung metastasis was measured by weighing the lungs.
After establishing the capacity of P1 to inhibit primary tumor growth, the capacity of P1 to inhibit lung metastasis formation was measured as described in Methods, section (vi). Mice were injected with LLC cells (200,000 cells per mouse) into the foot pad and primary tumors were allowed to develop over a period of 3 to 4 weeks to a volume of approximately 8 mm^3. Subsequently, primary tumors were removed through amputation and lung metasases were allowed to develop for four weeks before the mice were sacrificed. The extent of lung metastasis at this point was examined by gross morphological examination and by determining the gain in lung weight. […] In order to quantitate the results from these experiments, the lungs from all mice were weighed and evaluated for the extent of metastatic growth.

soluble FGFR-1 (FRAP) = biological target: T1, soluble FGFR-1 (FRAP) (Mus musculus, UniProt P16092); assay: Binding of 125I-bFGF to immobilized soluble FGFR-1 (FRAP), cell-free; conditions: FIG. 8B
T1 sequence (P16092 22-376 limits assumed): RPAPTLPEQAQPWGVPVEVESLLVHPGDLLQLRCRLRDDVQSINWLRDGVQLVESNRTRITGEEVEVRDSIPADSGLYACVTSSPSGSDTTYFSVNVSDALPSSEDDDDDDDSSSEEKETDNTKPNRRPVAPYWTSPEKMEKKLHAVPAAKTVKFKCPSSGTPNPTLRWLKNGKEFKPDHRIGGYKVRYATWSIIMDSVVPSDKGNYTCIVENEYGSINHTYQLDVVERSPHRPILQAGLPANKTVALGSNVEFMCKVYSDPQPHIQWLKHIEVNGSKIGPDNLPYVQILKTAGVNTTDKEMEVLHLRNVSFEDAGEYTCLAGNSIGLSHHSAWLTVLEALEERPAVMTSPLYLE

SMILES	Inhibition of lung metastasis in LLC model, in words ([1]; listed as Compound P16)	Inhibition of lung metastasis in LLC model, in words [1]	Activity relative to P1 in inhibiting radiolabeled bFGF binding to immobilized receptor (fold) (soluble FGFR-1 (FRAP))
C[n+]1ccc(-c2c3nc(c(-c4cc[n+](C)cc4)c4ccc([nH]4)c(-c4c(F)c(F)c(F)c(F)c4F)c4nc(c(-c5cc[n+](C)cc5)c5ccc2[nH]5)C=C4)C=C3)cc1.[I-].[I-].[I-] [Compound P16, 5-Pentafluorophenyl-10,15,20-tris(N-methyl-4-pyridylium)-21H,23H-porphine triiodide]	not as potent as the lead Compound P1		
C[n+]1ccc(-c2c3nc(c(-c4c(F)c(F)c(F)c(F)c4F)c4ccc([nH]4)c(-c4cc[n+](C)cc4)c4nc(c(-c5c(F)c(F)c(F)c(F)c5F)c5ccc2[nH]5)C=C4)C=C3)cc1 [Compound P17, 5,15-Bis(pentafluorophenyl)-10,20-bis(N-methyl-4-pyridylium)-21H,23H-porphine diiodide]		not as potent as the lead Compound P1	
C[n+]1ccc(-c2c3nc(c(-c4cc[n+](C)cc4)c4ccc([nH]4)c(-c4c(F)c(F)c(F)c(F)c4F)c4nc(c(-c5c(F)c(F)c(F)c(F)c5F)c5ccc2[nH]5)C=C4)C=C3)cc1 [Compound P18, 5,10-Bis(pentafluorophenyl)-15,20-bis(N-methyl-4-pyridylium)-21H,23H-porphine diiodide]		not as potent as the lead Compound P1	over 100 fold
